Source: PMC3549492
No constants are given. Whether binding was seen depends on the method and setting. For some assays here: Binding seen in cells or lysates may run through a third protein. Some results given as binding are weak or reduced against the parent protein; the word gives no strength. For some assays here: Tags and fused reporters may be left off the sequences shown.

Key:
[1] = target: T1, Doublecortin (Dcx), endogenous, human fetal cortex (human (endogenous in fetal cortex)) (UniProt O43602); assay: co-IP; endogenous proteins from human fetal cortex (23 weeks) lysate; antisera to Dcx (C terminus) and to Kif1a; 2 mM AMP-PNP; BSA-blocked protein G beads; western blot
T1 sequence: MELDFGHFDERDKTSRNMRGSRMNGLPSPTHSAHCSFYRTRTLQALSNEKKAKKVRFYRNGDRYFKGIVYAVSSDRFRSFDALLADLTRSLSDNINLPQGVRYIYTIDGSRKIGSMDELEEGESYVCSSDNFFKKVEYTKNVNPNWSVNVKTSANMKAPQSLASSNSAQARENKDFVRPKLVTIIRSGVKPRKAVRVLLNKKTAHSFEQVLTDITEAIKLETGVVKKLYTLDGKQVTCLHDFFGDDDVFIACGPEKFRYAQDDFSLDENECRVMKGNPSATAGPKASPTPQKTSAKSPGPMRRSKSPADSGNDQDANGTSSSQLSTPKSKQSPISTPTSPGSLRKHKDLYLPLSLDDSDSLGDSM

[2] = target: Kif1a, endogenous, human fetal cortex (human (endogenous in fetal cortex)) (UniProt Q12756); assay: as above
[3] = target: T2, N-terminal HaloTag human KIF1A (amino acids 1-361) fusion protein (human) (UniProt Q12756); assay: cross-linking; BS3 (1 mM, 100-fold excess); 10 μM each of Dcx, Kif1a and MTs; 4 mM ATP; BRB80 pH 6.9; room temperature; SDS-PAGE, silver staining, protein identification by mass spectrometry; both purified
T2 sequence: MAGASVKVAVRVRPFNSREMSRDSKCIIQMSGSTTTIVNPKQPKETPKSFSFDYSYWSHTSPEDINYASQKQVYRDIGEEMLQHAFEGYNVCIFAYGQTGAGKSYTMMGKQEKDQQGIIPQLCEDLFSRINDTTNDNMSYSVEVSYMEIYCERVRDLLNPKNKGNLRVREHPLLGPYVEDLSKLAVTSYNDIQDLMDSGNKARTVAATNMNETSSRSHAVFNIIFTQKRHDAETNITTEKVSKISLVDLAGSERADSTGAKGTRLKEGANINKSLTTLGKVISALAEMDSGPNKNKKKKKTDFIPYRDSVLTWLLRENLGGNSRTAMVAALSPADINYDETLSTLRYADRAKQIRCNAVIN

[4] = target: T2, N-terminal HaloTag human KIF1A (amino acids 1-361) fusion protein (human); assay: cross-linking; data not shown; no MTs and no nucleotide; concentrations >15 μM; method taken from the sentence before; both purified
[5] = target: T2, N-terminal HaloTag human KIF1A (amino acids 1-361) fusion protein (human); assay: pull-down; HaloTag-Kif1a (1-361) on HaloLink magnetic beads; 5 μM of each protein; 4 mM ATP, ADP or AMP-PNP; no MTs or tubulin; 100 mM Tris pH 7.4, 150 mM NaCl, 4 mM MgCl2, 1 mM EGTA, 1 mM DTT, 0.5% Triton X-100; room temperature; SDS-PAGE, silver staining; both purified

Kif1a, endogenous, human fetal cortex (from UniProt Q12756 1-1690)
binding [1]: binds

B1: Doublecortin (Dcx), endogenous, human fetal cortex (protein, UniProt O43602 1-365)
chain: T1 sequence
binding [2]: binds weakly

B2: overexpressed and purified full-length human Dcx (protein, UniProt O43602 1-365)
chain: T1 sequence
binding [3]: binds
binding [4]: binds
binding [5]: binds
